# Experimental data as given in PubChem BioAssay (NCATS).
# The chains behind the UniProt entries cited, without tags or fusion partners. Where a name states a change or a piece, a line headed by the entry shows the natural chain unless it says otherwise.
# UniProt Q03181: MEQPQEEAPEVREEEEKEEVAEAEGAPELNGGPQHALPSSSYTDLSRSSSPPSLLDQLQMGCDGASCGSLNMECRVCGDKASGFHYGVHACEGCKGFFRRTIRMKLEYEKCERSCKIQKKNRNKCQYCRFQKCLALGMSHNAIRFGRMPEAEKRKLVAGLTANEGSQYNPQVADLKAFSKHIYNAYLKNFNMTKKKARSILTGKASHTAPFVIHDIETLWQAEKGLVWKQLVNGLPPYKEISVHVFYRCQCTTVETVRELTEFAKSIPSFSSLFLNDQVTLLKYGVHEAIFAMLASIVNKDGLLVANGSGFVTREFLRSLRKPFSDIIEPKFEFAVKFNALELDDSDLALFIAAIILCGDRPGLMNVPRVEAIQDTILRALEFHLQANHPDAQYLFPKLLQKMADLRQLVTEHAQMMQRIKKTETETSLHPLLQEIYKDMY
# UniProt P11473: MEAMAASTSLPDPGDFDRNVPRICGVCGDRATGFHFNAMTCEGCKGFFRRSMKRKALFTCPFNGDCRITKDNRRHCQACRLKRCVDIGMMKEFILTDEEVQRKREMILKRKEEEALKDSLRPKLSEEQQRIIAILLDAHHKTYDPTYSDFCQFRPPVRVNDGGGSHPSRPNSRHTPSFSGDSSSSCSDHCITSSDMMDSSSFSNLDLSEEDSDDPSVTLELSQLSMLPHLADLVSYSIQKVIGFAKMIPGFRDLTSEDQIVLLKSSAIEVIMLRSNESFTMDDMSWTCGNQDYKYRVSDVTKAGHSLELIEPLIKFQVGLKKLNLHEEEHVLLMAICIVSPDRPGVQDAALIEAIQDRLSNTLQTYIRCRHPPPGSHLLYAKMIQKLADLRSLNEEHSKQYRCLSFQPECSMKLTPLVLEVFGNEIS
# UniProt P10828: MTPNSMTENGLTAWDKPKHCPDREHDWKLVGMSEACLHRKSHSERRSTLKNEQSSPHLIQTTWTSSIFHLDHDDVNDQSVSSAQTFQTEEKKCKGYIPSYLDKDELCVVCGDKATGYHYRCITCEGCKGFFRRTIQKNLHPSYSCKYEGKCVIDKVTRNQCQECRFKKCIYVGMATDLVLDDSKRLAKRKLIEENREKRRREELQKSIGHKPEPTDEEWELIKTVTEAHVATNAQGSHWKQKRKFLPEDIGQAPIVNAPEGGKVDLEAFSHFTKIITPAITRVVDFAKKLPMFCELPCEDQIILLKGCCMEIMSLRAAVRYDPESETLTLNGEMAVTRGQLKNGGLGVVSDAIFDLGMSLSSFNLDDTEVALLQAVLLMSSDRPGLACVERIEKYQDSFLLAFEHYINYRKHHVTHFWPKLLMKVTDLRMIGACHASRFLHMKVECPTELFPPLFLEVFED
# UniProt P19793: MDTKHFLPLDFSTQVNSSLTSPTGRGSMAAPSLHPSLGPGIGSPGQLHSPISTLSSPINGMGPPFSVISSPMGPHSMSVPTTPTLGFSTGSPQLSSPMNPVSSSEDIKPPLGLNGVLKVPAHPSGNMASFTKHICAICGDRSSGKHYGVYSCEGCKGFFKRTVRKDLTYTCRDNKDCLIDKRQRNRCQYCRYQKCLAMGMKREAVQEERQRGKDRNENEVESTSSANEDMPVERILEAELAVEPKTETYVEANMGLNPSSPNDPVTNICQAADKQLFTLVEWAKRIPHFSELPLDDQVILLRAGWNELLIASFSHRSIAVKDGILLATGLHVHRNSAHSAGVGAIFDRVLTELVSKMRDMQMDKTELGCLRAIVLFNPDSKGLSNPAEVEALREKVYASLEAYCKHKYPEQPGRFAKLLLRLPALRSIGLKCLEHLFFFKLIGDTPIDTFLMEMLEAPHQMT
# UniProt Q12809: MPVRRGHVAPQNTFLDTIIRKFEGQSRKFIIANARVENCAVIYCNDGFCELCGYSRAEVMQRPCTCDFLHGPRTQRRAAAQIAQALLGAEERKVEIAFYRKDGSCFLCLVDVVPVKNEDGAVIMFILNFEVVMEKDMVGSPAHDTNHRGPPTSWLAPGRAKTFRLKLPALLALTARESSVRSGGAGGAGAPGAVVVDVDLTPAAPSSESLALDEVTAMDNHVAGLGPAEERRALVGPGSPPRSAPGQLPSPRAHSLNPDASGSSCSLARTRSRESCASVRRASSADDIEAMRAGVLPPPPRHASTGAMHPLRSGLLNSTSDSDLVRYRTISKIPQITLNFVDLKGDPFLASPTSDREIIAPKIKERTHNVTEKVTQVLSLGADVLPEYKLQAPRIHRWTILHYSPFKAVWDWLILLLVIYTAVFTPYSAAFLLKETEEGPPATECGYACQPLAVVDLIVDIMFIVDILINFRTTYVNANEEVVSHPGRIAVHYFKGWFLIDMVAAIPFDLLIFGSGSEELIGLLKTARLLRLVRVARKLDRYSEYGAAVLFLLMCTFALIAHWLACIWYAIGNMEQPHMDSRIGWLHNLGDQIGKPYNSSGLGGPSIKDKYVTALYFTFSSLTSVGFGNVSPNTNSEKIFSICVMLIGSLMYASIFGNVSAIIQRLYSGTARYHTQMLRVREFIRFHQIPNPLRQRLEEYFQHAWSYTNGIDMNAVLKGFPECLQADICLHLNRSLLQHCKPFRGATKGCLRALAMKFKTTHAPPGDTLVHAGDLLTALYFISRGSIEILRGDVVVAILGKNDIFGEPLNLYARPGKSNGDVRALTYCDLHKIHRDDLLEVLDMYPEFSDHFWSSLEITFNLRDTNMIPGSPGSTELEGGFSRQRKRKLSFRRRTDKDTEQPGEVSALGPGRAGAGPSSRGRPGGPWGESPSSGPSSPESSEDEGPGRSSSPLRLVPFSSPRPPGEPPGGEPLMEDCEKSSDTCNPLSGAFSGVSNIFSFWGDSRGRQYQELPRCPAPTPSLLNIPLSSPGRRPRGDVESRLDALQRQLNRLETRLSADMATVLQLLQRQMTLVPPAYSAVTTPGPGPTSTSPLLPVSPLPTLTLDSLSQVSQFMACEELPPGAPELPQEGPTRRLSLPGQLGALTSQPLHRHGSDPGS
# This list was built around the results that the source calls inconclusive (neither active nor inactive); the mix of calls is not that of the screen. For some assays here: Potencies beside an inconclusive call are fits to weak or partial responses and may not hold up. For some assays here: A note “side channel” means that the fit belongs to a control or component signal, not to the main read-out. Calls of active or inactive are those of the source. Unless noted, calls come from the whole dose curve.
# Key:
# [1] = target: Peroxisome proliferator-activated receptor delta (Homo sapiens) (UniProt Q03181); test: qHTS assay for small molecule antagonists of peroxisome proliferator-activated receptor delta signaling (AID 588535; active = well fitted inhibition curve with a large enough effect in the signal ratio, with a control signal flat, not every such curve was filed as active; inconclusive = small, poorly fitted or top-dose-only effect, or effect the other way, or a change in a side signal; inactive = no such curve, though single readings can be large or run the other way; the % refers to the signal ratio); settings: HEK293T PPARd-UAS-bla, beta-lactamase FRET ratio, 18 h
# Method in brief: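 HEK293T PPAR-delta-UAS-bla cells, 4000/well, 2% charcoal/dextran FBS; 5 h 37 C; cpd titration; 18 h 37 C; CCF4 2 h RT; FI 460/530 nm; Hill fit → IC50, efficacy.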
# [2] = qHTS assay for small molecule agonists of the antioxidant response element (ARE) signaling pathway (AID 651741; active = well fitted activation curve with a large enough effect in the signal ratio; inconclusive = small, poorly fitted or top-dose-only effect, or effect the other way, or a change in a side signal; the % refers to the signal ratio; note: potency is the fitted concentration of half-maximal effect; for activation: % of control where 0% means no effect); settings: HepG2 ARE-bla reporter, beta-lactamase FRET ratio, 16 h; activation: at 96 µM (top of the series) unless noted
# Method in brief: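 Quantitative HTS in HepG2 cells stably expressing an ARE-beta-lactamase reporter; 16 h compound exposure at 37 C, followed by 2 h room-temperature incubation with LiveBLAzer B/G FRET substrate and fluorescence measurement.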
# [3] = target: Peroxisome proliferator-activated receptor gamma (Homo sapiens) (UniProt P37231); test: qHTS assay for small molecule agonists of peroxisome proliferator-activated receptor gamma signaling (AID 588536; active = well fitted curve in the direction sought with a large enough effect in the signal ratio, with a control signal flat, not every such curve was filed as active; inconclusive = small, poorly fitted or top-dose-only effect, or effect the other way, or a change in a side signal; inactive = no such curve, though single readings can be large or run the other way; the % refers to the signal ratio; note: potency is the fitted concentration of half-maximal effect;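 for activation: 0% = DMSO basal wells and 100% = rosiglitazone at 2 µM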); settings: HEK293 PPARg-UAS-bla, beta-lactamase ratio, 16 h; activation: at 76.7 µM (top of the series), percent of rosiglitazone response, DMSO as zero unless noted
# Method in brief: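 GeneBLAzer PPAR-gamma-UAS-bla HEK293 cells in 1% charcoal/dextran-treated FBS medium were treated 16 h at 37 C with compounds. Beta-lactamase activity was read by CCF4 ratio (460/530 nm). Response was normalized to 2 uM rosiglitazone (100%) and DMSO, then Hill-fitted for EC50 and efficacy.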
# [4] = target: Peroxisome proliferator-activated receptor gamma (Homo sapiens) (UniProt P37231); test: qHTS assay for small molecule antagonists of peroxisome proliferator-activated receptor gamma signaling (AID 588537; active = well fitted inhibition curve with a large enough effect in the signal ratio, with a control signal flat, not every such curve was filed as active; inconclusive = small, poorly fitted or top-dose-only effect, or effect the other way, or a change in a side signal; the % refers to the signal ratio;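 note: reporter cells co-stimulated with 50 nM rosiglitazone agonist during compound treatment; % of control where 0% means no effect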); settings: HEK293 PPARg-UAS-bla, beta-lactamase ratio, antagonist mode; activity, negative = inhibition: at 76.8 µM (top of the series)
# Method in brief: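 Antagonist mode, beta-lactamase reporter in HEK293; charcoal/dextran FBS 1%; 3000 cells/well, 37 C 6-6.5 h; cpd titration + rosiglitazone 50 nM final, 16 h 37 C; CCF4, 2 h RT; 460/530 nm; Hill fit → IC50, efficacy.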
# [5] = target: Vitamin D3 receptor (Homo sapiens) (UniProt P11473); test: qHTS assay for small molecule antagonists of vitamin D receptor signaling (AID 588541); settings: HEK293T VDR-UAS-bla, beta-lactamase ratio, antagonist mode; activity change, negative = inhibition: at 76.7 µM (top of the series);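 note: receptor activated by calcitriol during compound treatment; % is set by controls: 0 for no effect and ±100 for the full control effect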
# [6] = target: Peroxisome proliferator-activated receptor delta (Homo sapiens) (UniProt Q03181); test: qHTS assay for small molecule agonists of peroxisome proliferator-activated receptor delta signaling (AID 588534); settings: HEK293T PPARdelta-UAS-bla, beta-lactamase ratio, 18 h; activation: at 76.7 µM (top of the series); note: potency is the fitted concentration of half-maximal effect
# Method in brief: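 Cells carrying a PPAR-delta beta-lactamase reporter were treated with compounds for 18 h at 37 °C in agonist mode. CCF4 fluorescence was read after 2 h; EC50 and efficacy from Hill fits.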
# [7] = target: Thyroid hormone receptor beta (Homo sapiens) (UniProt P10828); test: qHTS assay for small molecule agonists of thyroid hormone receptor beta signaling (AID 588545); settings: TR-UAS-bla GripTite HEK 293, beta-lactamase ratio, agonist mode, 18 h; activation: at 76.7 µM, percent of T3 response, DMSO as zero; note: potency is the fitted concentration of half-maximal effect;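 for activation: 0% = DMSO only and 100% = 10 nM T3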
# Method in brief: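 Compounds were tested as agonists in TR-UAS-bla-GripTite HEK 293 cells. After 18 hrs at 37 C, CCF4 substrate was added and fluorescence read after 2 hrs at room temperature.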
# [8] = target: Retinoic acid receptor RXR-alpha (Homo sapiens) (UniProt P19793); test: qHTS assay for small molecule antagonists of retinoid X receptor alpha signaling (AID 588546; active = well fitted inhibition curve with a large enough effect in the signal ratio, with a control signal flat, not every such curve was filed as active; inconclusive = small, poorly fitted or top-dose-only effect, or effect the other way, or a change in a side signal; inactive = no such curve, though single readings can be large or run the other way; the % refers to the signal ratio; note: potency is the fitted concentration of half-maximal effect;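 for max response: cells stimulated with 9-cis-retinoic acid as agonist; % is set by controls: 0 for no effect and ±100 for the full control effect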); settings: HEK293T RXRa-UAS-bla, beta-lactamase ratio, antagonist mode
# Method in brief: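 Beta-lactamase reporter inhibition, read as CCF4 fluorescence ratio (ex 405, em 460/530 nm) after 2 h at RT. HEK293T UAS-bla cells, 2500/well, were stimulated with 9-cis-RA at 500 or 100 nM final alongside test compound for 18 h at 37 C.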
# [9] = qHTS assay for small molecule activators of the nuclear factor-kappa B (NF-kB) signaling pathway (AID 651749; active = well fitted activation curve with a large enough effect in the signal ratio; inconclusive = small, poorly fitted or top-dose-only effect, or a change in a side signal; the % refers to the signal ratio; note: potency is the fitted concentration of half-maximal effect); settings: NF-kB-bla ME-180 cells, beta-lactamase FRET ratio, 16 h; activation: stronger effect = higher value
# Method in brief: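 Readout: beta-lactamase reporter driven by an NF-kB response element, detected fluorescently as loss of FRET. Cells were the ME-180 line, treated 16 hr at 37C with pin-transferred compound.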
# [10] = target: Retinoic acid receptor RXR-alpha (Homo sapiens) (UniProt P19793); test: qHTS assay for small molecule agonists of retinoid X receptor alpha signaling (AID 588544); settings: HEK293T RXRa-UAS-bla, beta-lactamase reporter, 18 h; activation: at 76.7 µM (top of the series) unless noted;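 note: 0% = DMSO basal wells and 100% = reference agonist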
# [11] = qHTS assay for small molecule disruptors of the mitochondrial membrane potential - 1 hr assay (AID 651754); settings: ratio change, negative = depolarisation: at 92.2 µM (top of the series); note: % is set by controls: 0 for no effect and ±100 for the full control effect; nearly all actives have a fitted effect of over 35% in size
# Method in brief: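 HepG2 cells, attached overnight, were exposed to compound for 1 hr at 37C, then stained 30 min with a potentiometric dye. Ratio of red aggregate (590nm) to green monomer (535nm) fluorescence reports membrane potential; collapse shifts signal toward green.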
# [12] = qHTS assay to identify small molecules that stimulate interleukin-8 (IL-8) secretion (AID 651758; active = well fitted activation curve with a large enough effect in the signal ratio; inconclusive = small, poorly fitted or top-dose-only effect, or effect the other way, or a change in a side signal; the % refers to the signal ratio; note: 0% is about no effect); settings: HTRF ratio (665/615); activation: at 92.2 µM (top of the series)
# Method in brief: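 Secreted IL-8 measured by TR-FRET sandwich (cryptate and XL665 antibodies) from THP-1 cells exposed to compound overnight (16 hrs, 37 C).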
# [13] = Cellular Toxicity (caspase-3) Mesangial (AID 660; active = well fitted curve in the direction sought with a large enough effect; inconclusive = small, poorly fitted or top-dose-only effect, or another doubt; inactive = no such curve, though single readings can be large; an effect the other way counts as inactive or inconclusive;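 note: combined caspase 3 and 7 activity read by Caspase-Glo luminescence; cells exposed to compound for 16 h before the caspase read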); settings: mesangial cells, normalized: DMSO 0%, 100 µM tamoxifen 100%; at 91.7 µM (top of the series)
# Method in brief: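 Human renal glomerular mesangial cells, 1000/well, 5 h at 37 C before 16 h compound treatment. Caspase-Glo 3/7 luminescence after 20 min; normalized to DMSO and 100 uM tamoxifen, AC50 from Hill fit.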
# [14] = MultiTox-Fluor Cytotoxicity Assay - LYMP1-002 - Dead Cells (AID 960; active = well fitted curve in the direction sought with a large enough effect; inconclusive = small, poorly fitted or top-dose-only effect, or another doubt; inactive = no such curve, though single readings can be large; an effect the other way counts as inactive or inconclusive; note: nearly all actives have a fitted effect of over 60% in size; note: potency is the fitted concentration of half-maximal effect;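 for cytotoxicity (dead cells): 0% = DMSO and 100% = tetraoctylammonium bromide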); settings: LYMP1-002 lymphoblastoid cells, dead-cell protease fluorescence; cytotoxicity (dead cells): at 46.1 µM (top of the series)
# Method in brief: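 Human lymphoblastoid LYMP1-002 cells, 2500/well, treated 16 h at 37 C; dead-cell protease cleavage of bis-AAF-R110 read by fluorescence (485/520); normalized to DMSO and 15 uM tetraoctylammonium bromide; AC50 from Hill fit.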
# [15] = target: Voltage-gated inwardly rectifying potassium channel KCNH2 (Homo sapiens) (UniProt Q12809); test: qHTS Assay for Small Molecule Inhibitors of the Human hERG Channel Activity (AID 588834; active = well fitted curve in the direction sought with a large enough effect; inconclusive = small, poorly fitted or top-dose-only effect, or another doubt; inactive = no such curve, though single readings can be large; an effect the other way counts as inactive or inconclusive;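 note: top concentration of the series differs between compounds; % is set by controls: 0 for no effect and ±100 for the full control effect; lower thallium flux fluorescence means stronger hERG block; nearly all actives have a fitted effect of over 50% in size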); settings: U2OS BacMam hERG, FluxOR thallium flux fluorescence; at 92.2 µM (top of the series)
# Method in brief: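 Kinetic FDSS fluorescence; U2OS + hERG BacMam (~100 virus particles/cell); FluxOR Tl+ flux; ~10 min cpd; AC50 (Hill).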
# [16] = Cell Viability - LYMP2-004 (AID 966; active = well fitted curve in the direction sought with a large enough effect; inconclusive = small, poorly fitted or top-dose-only effect, or another doubt; inactive = no such curve, though single readings can be large; an effect the other way counts as inactive or inconclusive;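 note: plate controls were DMSO only for no effect and tetraoctylammonium bromide control for full effect; nearly all actives have a fitted effect of over 65% in size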); settings: LYMP2-004 lymphoblastoid cell viability, qHTS; activity change, negative = cytotoxicity: at 92.2 µM (top of the series)
# Method in brief: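 Lymphoblastoid LYMP2-004 cells, 2500 per well, were preincubated for 5 hr and then treated with compound for 24 h at 37 C in complete medium. Viability was read as cellular ATP by CellTiter-Glo luminescence, and AC50 values were taken from Hill fits to concentration-response data.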
# [17] = Cell Viability - LYMP2-015 (AID 971; active = well fitted curve in the direction sought with a large enough effect; inconclusive = small, poorly fitted or top-dose-only effect, or another doubt; inactive = no such curve, though single readings can be large; an effect the other way counts as inactive or inconclusive;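 note: 0% = DMSO only and full effect = 92 µM tetraoctylammonium bromide; nearly all actives have a fitted effect of over 55% in size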); settings: LYMP2-015 lymphoblastoid cell viability; activity change, negative = lower viability: at 92.2 µM (top of the series)
# Method in brief: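 LYMP2-015 human lymphoblastoid cells (2500/well) in complete medium, compound-treated 24 h at 37 C; viability read as cellular ATP by CellTiter-Glo luminescence after 30 min at room temperature. AC50 from Hill-equation fits of qHTS concentration-response data.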
# [18] = Cell Viability - LYMP2-002 (AID 977; active = well fitted curve in the direction sought with a large enough effect; inconclusive = small, poorly fitted or top-dose-only effect, or another doubt; inactive = no such curve, though single readings can be large; an effect the other way counts as inactive or inconclusive;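 note: compound exposure lasted 24 h at 37 °C; plate controls were DMSO only for no effect and 92 µM tetraoctylammonium bromide for full effect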)
# Method in brief: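 Cytotoxicity is scored as concentration-dependent loss of cellular ATP in a human lymphoblastoid line after 24 hr compound treatment at 37 C. AC50 is obtained by modelling concentration-response data with the Hill equation.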
# [19] = activity change, negative = inhibition: at 76.7 µM (top of the series) unless noted
smiles,measurement,setting,value
COC(=O)NS(=O)(=O)c1ccc(N)cc1,"activity change, negative = inhibition",[1]; [19],inconclusive: -2.94%
same,Potency,[2],"inconclusive: 0.0273 µM [side channel, falling, full curve, poor fit]"
same,activation,[2],inconclusive: 9.39%
CC(C1CC1)C(O)(Cn1cncn1)c1ccc(Cl)cc1 (configuration not stated),Potency,[1]; [19],inactive
same,activation,[3],inconclusive: -11.1%
same,"activity, negative = inhibition",[4],inconclusive: -22.2%
same,Potency,[5],inactive
same,Potency,[2],"inconclusive: 0.0022 µM [cytotoxic, side channel, full curve, poor fit]"
CC1(C)C(C=C(Cl)Cl)[C@H]1C(=O)OCc1cccc(Oc2ccccc2)c1 (some centres not stated),Potency,[6],inconclusive: 0.0013 µM
same,Potency,[7],"inconclusive: 0.0063 µM [side channel, falling, full curve, poor fit]"
same,activation,[2],inconclusive: 6.73%
CC(C)[C@H](C(=O)O[C@H](C#N)c1cccc(Oc2ccccc2)c1)c1ccc(Cl)cc1,Potency,[1]; [19],inactive
same,max response,[8],inconclusive: -25.5%
same,Potency,[2],active: 61.1 µM
same,Potency,[9],"inconclusive: 50.1 µM [side channel, falling, single point]"
CCOP(=S)(OCC)SCSC(C)(C)C,Potency,[1]; [19],inactive
same,Potency,[3],inactive
same,"activity, negative = inhibition",[4],inconclusive: 11.8%
same,Potency,[10],inactive
same,Potency,[2],inactive
same,Potency,[11],inactive
same,activation,[12],inconclusive: 23.3%
CNC(=O)CSP(=S)(OC)OC,"activity change, negative = inhibition",[1]; [19],inconclusive: -5.87%
same,"activity change, negative = inhibition",[1]; at 76.7 µM (top of the series),inactive: 12.2%
same,activation,[3],inconclusive: 16.8%
same,"activity, negative = inhibition",[4],inconclusive: -26.3%
same,activation,[10],inconclusive: -37.2%
same,Potency,[8],"inconclusive: 22.4 µM [activator, partial curve, poor fit]"
same,Potency,[2],inactive
N#CC(O)c1ccccc1 (configuration not stated),caspase-3 activation,[13],inactive: 0.473%
same,Potency,[14],inactive
same,Potency,[1]; [19],inactive
same,Potency,[3],"inconclusive: 31.6 µM [side channel, falling, partial curve, poor fit]"
same,"activity change, negative = inhibition",[15],inactive: 0.606%
same,Potency,[2],inactive
same,"ratio change, negative = depolarisation",[11],inconclusive: 2.78%
same,Potency,[12],inactive
CN(C)C(=O)Cl,Potency,[14],"inconclusive: 31.6 µM [cytotoxic, partial curve, poor fit]"
same,Potency,[16],inactive
same,Potency,[17],inactive
same,Potency,[18],inactive
same,Potency,[1]; [19],inactive
same,Potency,[4],inactive
same,Potency,[5],inactive
same,activation,[7],inconclusive: -28.6%
same,Potency,[2],inactive
same,Potency,[12],inactive

# In a second layout: entries from further up.
smiles	measurement	setting	value
COC(=O)NS(=O)(=O)c1ccc(N)cc1	activation	[2]	inconclusive: 9.39%
CC1(C)C(C=C(Cl)Cl)[C@H]1C(=O)OCc1cccc(Oc2ccccc2)c1 (some centres not stated)	Potency	[6]	inconclusive: 0.0013 µM
CCOP(=S)(OCC)SCSC(C)(C)C	Potency	[3]	inactive
